Assay results: patent US20180319810A1, “SUBSTITUTED BRIDGED UREA ANALOGS AS SIRTUIN MODULATORS” (GlaxoSmithKline Intellectual Property (No.2) Limited, priority 2014, published 2018)
At least one structure is not confirmed: it was looked up by name or label, or the drawing left a doubt.

Target: T1, SIRT1 (Homo sapiens, UniProt Q96EB6)
T1 sequence (Q96EB6 1-747): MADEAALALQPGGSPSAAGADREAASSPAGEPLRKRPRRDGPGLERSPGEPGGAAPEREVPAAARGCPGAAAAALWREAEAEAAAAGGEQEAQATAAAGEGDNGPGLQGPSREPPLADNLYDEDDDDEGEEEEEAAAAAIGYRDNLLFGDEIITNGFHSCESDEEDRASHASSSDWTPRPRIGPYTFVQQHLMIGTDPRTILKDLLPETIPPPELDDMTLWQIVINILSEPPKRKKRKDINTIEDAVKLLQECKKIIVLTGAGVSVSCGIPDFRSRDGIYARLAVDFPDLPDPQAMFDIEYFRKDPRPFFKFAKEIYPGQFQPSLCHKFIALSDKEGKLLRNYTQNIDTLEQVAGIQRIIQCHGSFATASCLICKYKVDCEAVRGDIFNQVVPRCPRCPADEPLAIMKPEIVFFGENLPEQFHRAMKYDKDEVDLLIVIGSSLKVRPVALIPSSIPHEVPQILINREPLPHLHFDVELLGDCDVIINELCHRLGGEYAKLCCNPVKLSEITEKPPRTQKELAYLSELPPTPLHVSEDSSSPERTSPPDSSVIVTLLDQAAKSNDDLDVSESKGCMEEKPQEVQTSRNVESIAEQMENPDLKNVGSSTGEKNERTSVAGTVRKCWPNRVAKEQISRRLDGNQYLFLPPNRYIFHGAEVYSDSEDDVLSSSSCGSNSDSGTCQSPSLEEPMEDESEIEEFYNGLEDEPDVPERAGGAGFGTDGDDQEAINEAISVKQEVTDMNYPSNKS
Test: Trp mass spectrometry assay of SIRT1 activation
Assay type: biochemical
Settings: Trp peptide Ac-R-H-K-K(Ac)-W-NH2 0.5 μM, 120 μM βNAD+, 10 nM SIRT1, 25 min, 25° C.
From the text: Mass spectrometry based assays were used to identify modulators of SIRT1 activity. […] The peptide was labeled with the fluorophore 5TMR (excitation 540 nm/emission 580 nm) at the C-terminus. The sequence of the peptide substrate was based on p53 with several modifications. In addition, the methionine residue naturally present in the sequence was replaced with the norleucine because the methionine may be susceptible to oxidation during synthesis and purification.
The Trp mass spectrometry assay was conducted as follows. […] Test compound was added at varying concentrations to this reaction mixture and the resulting reactions were monitored. […] The relative SIRT1 activity was then determined by measuring the amount of O-acetyl-ADP-ribose (OAADPR) formed (or, alternatively, the amount of deacetylated Trp peptide generated) by the NAD-dependent sirtuin deacetylation reaction in the presence of varying concentrations of the test compound versus control reactions lacking the test compound.
The degree to which the test agent activated deacetylation by SIRT1 was expressed as EC1.5 (i.e., the concentration of compound required to increase SIRT1 activity by 50% over the control lacking test compound), and Percent Maximum Activation (i.e., the maximum activity relative to control (100%) obtained for the test compound). […]

O=C(Nc1ccccn1)N1c2nc(-c3cccc(C(F)(F)F)c3)ncc2N2CC[C@H]1C2 [Example 3, (8S)—N-(pyridin-2-yl)-2-(3-(trifluoromethyl)phenyl)-7,8-dihydro-5,8-methano pyrimido[4,5-b][1,4]diazepine-9(6H)-carboxamide]
TRP Activity (EC1.5, concentration of compound required to increase SIRT1 activity by 50% over control): A (EC1.5<1 μM)
